These are yes or no findings as the source states them, for the method shown. In cells and extracts the contact can be indirect. Some results given as binding are weak or reduced against the parent protein; the word gives no strength. For part of these data: Sequences can lack the tags named with a protein.

Sequences of proteins named here, by UniProt entry; tags and fusion partners are left off.
UniProt P49429: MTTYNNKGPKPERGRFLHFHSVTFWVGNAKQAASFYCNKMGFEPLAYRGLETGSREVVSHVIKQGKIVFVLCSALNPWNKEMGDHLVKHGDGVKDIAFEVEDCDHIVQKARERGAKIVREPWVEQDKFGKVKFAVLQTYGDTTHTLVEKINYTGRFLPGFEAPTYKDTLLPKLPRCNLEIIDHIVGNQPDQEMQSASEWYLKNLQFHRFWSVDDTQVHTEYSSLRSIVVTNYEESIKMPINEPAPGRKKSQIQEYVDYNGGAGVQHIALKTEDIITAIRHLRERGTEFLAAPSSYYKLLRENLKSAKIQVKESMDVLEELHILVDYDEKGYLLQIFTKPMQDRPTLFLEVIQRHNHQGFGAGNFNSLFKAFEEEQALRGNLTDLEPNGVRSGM

To fix the notation:
T1: Flag-PELI1 (CMV-Flag-Peli1), wild type (human) (UniProt Q96FA3)
T1 sequence: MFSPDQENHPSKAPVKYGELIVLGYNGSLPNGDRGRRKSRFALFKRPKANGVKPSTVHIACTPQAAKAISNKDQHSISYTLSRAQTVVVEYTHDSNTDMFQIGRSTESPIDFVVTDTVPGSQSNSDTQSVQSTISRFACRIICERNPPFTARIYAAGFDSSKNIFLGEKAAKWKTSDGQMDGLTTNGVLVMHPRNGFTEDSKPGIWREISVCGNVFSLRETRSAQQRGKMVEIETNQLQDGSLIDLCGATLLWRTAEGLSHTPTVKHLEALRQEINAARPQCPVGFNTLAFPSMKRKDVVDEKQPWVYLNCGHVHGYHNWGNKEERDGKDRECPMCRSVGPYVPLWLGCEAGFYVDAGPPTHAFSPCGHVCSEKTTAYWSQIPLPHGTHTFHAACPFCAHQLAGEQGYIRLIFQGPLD

B1: His/V5-HPD T3A (protein, UniProt P32754-1 1-393)
chain: MTAYSDKGAKPERGRFLHFHSVTFWVGNAKQATSFYCSKMGFEPLAYRGLETGSREVVSHVIKQGKIVFVLSSALNPWNKEMGDHLVKHGDGVKDIAFEVEDCDYIVQKARERGAKIMREPWVEQDKFGKVKFAVLQTYGDTTHTLVEKMNYIGQFLPGYEAPAFMDPLLPKLPKCSLEMIDHIVGNQPDQEMVSASEWYLKNLQFHRFWSVDDTQVHTEYSSLRSIVVANYEESIKMPINEPAPGKKKSQIQEYVDYNGGAGVQHIALKTEDIITAIRHLRERGLEFLSVPSTYYKQLREKLKTAKIKVKENIDALEELKILVDYDEKGYLLQIFTKPVQDRPTLFLEVIQRHNHQGFGAGNFNSLFKAFEEEQNLRGNLTNMETNGVVPGM
B2: His/V5-HPD T271A (protein, UniProt P32754-1 1-393)
chain: MTTYSDKGAKPERGRFLHFHSVTFWVGNAKQATSFYCSKMGFEPLAYRGLETGSREVVSHVIKQGKIVFVLSSALNPWNKEMGDHLVKHGDGVKDIAFEVEDCDYIVQKARERGAKIMREPWVEQDKFGKVKFAVLQTYGDTTHTLVEKMNYIGQFLPGYEAPAFMDPLLPKLPKCSLEMIDHIVGNQPDQEMVSASEWYLKNLQFHRFWSVDDTQVHTEYSSLRSIVVANYEESIKMPINEPAPGKKKSQIQEYVDYNGGAGVQHIALKAEDIITAIRHLRERGLEFLSVPSTYYKQLREKLKTAKIKVKENIDALEELKILVDYDEKGYLLQIFTKPVQDRPTLFLEVIQRHNHQGFGAGNFNSLFKAFEEEQNLRGNLTNMETNGVVPGM
B3: His/V5-HPD T2A (protein, UniProt P32754-1 1-393)
chain: MATYSDKGAKPERGRFLHFHSVTFWVGNAKQATSFYCSKMGFEPLAYRGLETGSREVVSHVIKQGKIVFVLSSALNPWNKEMGDHLVKHGDGVKDIAFEVEDCDYIVQKARERGAKIMREPWVEQDKFGKVKFAVLQTYGDTTHTLVEKMNYIGQFLPGYEAPAFMDPLLPKLPKCSLEMIDHIVGNQPDQEMVSASEWYLKNLQFHRFWSVDDTQVHTEYSSLRSIVVANYEESIKMPINEPAPGKKKSQIQEYVDYNGGAGVQHIALKTEDIITAIRHLRERGLEFLSVPSTYYKQLREKLKTAKIKVKENIDALEELKILVDYDEKGYLLQIFTKPVQDRPTLFLEVIQRHNHQGFGAGNFNSLFKAFEEEQNLRGNLTNMETNGVVPGM
B4: His/V5-HPD T23A (protein, UniProt P32754-1 1-393)
chain: MTTYSDKGAKPERGRFLHFHSVAFWVGNAKQATSFYCSKMGFEPLAYRGLETGSREVVSHVIKQGKIVFVLSSALNPWNKEMGDHLVKHGDGVKDIAFEVEDCDYIVQKARERGAKIMREPWVEQDKFGKVKFAVLQTYGDTTHTLVEKMNYIGQFLPGYEAPAFMDPLLPKLPKCSLEMIDHIVGNQPDQEMVSASEWYLKNLQFHRFWSVDDTQVHTEYSSLRSIVVANYEESIKMPINEPAPGKKKSQIQEYVDYNGGAGVQHIALKTEDIITAIRHLRERGLEFLSVPSTYYKQLREKLKTAKIKVKENIDALEELKILVDYDEKGYLLQIFTKPVQDRPTLFLEVIQRHNHQGFGAGNFNSLFKAFEEEQNLRGNLTNMETNGVVPGM
B5: His/V5-HPD T219A (protein, UniProt P32754-1 1-393)
chain: MTTYSDKGAKPERGRFLHFHSVTFWVGNAKQATSFYCSKMGFEPLAYRGLETGSREVVSHVIKQGKIVFVLSSALNPWNKEMGDHLVKHGDGVKDIAFEVEDCDYIVQKARERGAKIMREPWVEQDKFGKVKFAVLQTYGDTTHTLVEKMNYIGQFLPGYEAPAFMDPLLPKLPKCSLEMIDHIVGNQPDQEMVSASEWYLKNLQFHRFWSVDDTQVHAEYSSLRSIVVANYEESIKMPINEPAPGKKKSQIQEYVDYNGGAGVQHIALKTEDIITAIRHLRERGLEFLSVPSTYYKQLREKLKTAKIKVKENIDALEELKILVDYDEKGYLLQIFTKPVQDRPTLFLEVIQRHNHQGFGAGNFNSLFKAFEEEQNLRGNLTNMETNGVVPGM
B6: His/V5-HPD T337A (protein, UniProt P32754-1 1-393)
chain: MTTYSDKGAKPERGRFLHFHSVTFWVGNAKQATSFYCSKMGFEPLAYRGLETGSREVVSHVIKQGKIVFVLSSALNPWNKEMGDHLVKHGDGVKDIAFEVEDCDYIVQKARERGAKIMREPWVEQDKFGKVKFAVLQTYGDTTHTLVEKMNYIGQFLPGYEAPAFMDPLLPKLPKCSLEMIDHIVGNQPDQEMVSASEWYLKNLQFHRFWSVDDTQVHTEYSSLRSIVVANYEESIKMPINEPAPGKKKSQIQEYVDYNGGAGVQHIALKTEDIITAIRHLRERGLEFLSVPSTYYKQLREKLKTAKIKVKENIDALEELKILVDYDEKGYLLQIFAKPVQDRPTLFLEVIQRHNHQGFGAGNFNSLFKAFEEEQNLRGNLTNMETNGVVPGM
B7: His/V5-HPD T138A (protein, UniProt P32754-1 1-393)
chain: MTTYSDKGAKPERGRFLHFHSVTFWVGNAKQATSFYCSKMGFEPLAYRGLETGSREVVSHVIKQGKIVFVLSSALNPWNKEMGDHLVKHGDGVKDIAFEVEDCDYIVQKARERGAKIMREPWVEQDKFGKVKFAVLQAYGDTTHTLVEKMNYIGQFLPGYEAPAFMDPLLPKLPKCSLEMIDHIVGNQPDQEMVSASEWYLKNLQFHRFWSVDDTQVHTEYSSLRSIVVANYEESIKMPINEPAPGKKKSQIQEYVDYNGGAGVQHIALKTEDIITAIRHLRERGLEFLSVPSTYYKQLREKLKTAKIKVKENIDALEELKILVDYDEKGYLLQIFTKPVQDRPTLFLEVIQRHNHQGFGAGNFNSLFKAFEEEQNLRGNLTNMETNGVVPGM
B8: His-HPD T382A (protein, UniProt P32754-1 1-393)
chain: MTTYSDKGAKPERGRFLHFHSVTFWVGNAKQATSFYCSKMGFEPLAYRGLETGSREVVSHVIKQGKIVFVLSSALNPWNKEMGDHLVKHGDGVKDIAFEVEDCDYIVQKARERGAKIMREPWVEQDKFGKVKFAVLQTYGDTTHTLVEKMNYIGQFLPGYEAPAFMDPLLPKLPKCSLEMIDHIVGNQPDQEMVSASEWYLKNLQFHRFWSVDDTQVHTEYSSLRSIVVANYEESIKMPINEPAPGKKKSQIQEYVDYNGGAGVQHIALKTEDIITAIRHLRERGLEFLSVPSTYYKQLREKLKTAKIKVKENIDALEELKILVDYDEKGYLLQIFTKPVQDRPTLFLEVIQRHNHQGFGAGNFNSLFKAFEEEQNLRGNLANMETNGVVPGM
B9: PELI1, endogenous mouse (protein, UniProt Q8C669 1-418)
chain: MFSPDQENHPSKAPVKYGELIVLGYNGSLPNGDRGRRKSRFALFKRPKANGVKPSTVHIACTPQAAKAISNKDQHSISYTLSRAQTVVVEYTHDSNTDMFQIGRSTESPIDFVVTDTVPGSQSNSDTQSVQSTISRFACRIICERSPPFTARIYAAGFDSSKNIFLGEKAAKWKTSDGQMDGLTTNGVLVMHPRNGFTEDSKPGIWREISVCGNVFSLRETRSAQQRGKMVEIETNQLQDGSLIDLCGATLLWRTAEGLSHTPTVKHLEALRQEINAARPQCPVGFNTLAFPSMKRKDVVDEKQPWVYLNCGHVHGYHNWGNKEERDGKDRECPMCRSVGPYVPLWLGCEAGFYVDAGPPTHAFSPCGHVCSEKTTAYWSQIPLPHGTHTFHAACPFCAHQLAGEQGYIRLIFQGPLD

One experiment has as its target T1, Flag-PELI1 (CMV-Flag-Peli1), wild type (human). Briefly: co-IP; HEK293T transfected with the indicated plasmids; immunoprecipitation with an anti-Flag antibody.
Regarding B1, the binding entry is on record as “binds”.
For B2, the binding entry is recorded as “binds”.
The same measure, in the same setting: as for B3, the entry is “binds”; as for B4, “binds”.
For B5, the binding entry is on record as “binds”.
On to B6, for which the binding result is listed as “binds”.
The same measure, in the same setting: as for B7, the entry is “binds”; as for B8, “no binding”.

In the next experiment the target is HPD, endogenous mouse (mouse (endogenous in primary hepatocytes)) (UniProt P49429). Briefly: co-IP; WT or Ttc36-/- mouse primary hepatocytes, MG-132 (10 μM) 12 h; immunoprecipitation with an anti-HPD antibody.
On to B9, for which the binding result is given as “binds”.
